Paper PMC9881131

Molecular target: T1, Myc-TRAIP wild type (UniProt Q9BWF2)
T1 sequence: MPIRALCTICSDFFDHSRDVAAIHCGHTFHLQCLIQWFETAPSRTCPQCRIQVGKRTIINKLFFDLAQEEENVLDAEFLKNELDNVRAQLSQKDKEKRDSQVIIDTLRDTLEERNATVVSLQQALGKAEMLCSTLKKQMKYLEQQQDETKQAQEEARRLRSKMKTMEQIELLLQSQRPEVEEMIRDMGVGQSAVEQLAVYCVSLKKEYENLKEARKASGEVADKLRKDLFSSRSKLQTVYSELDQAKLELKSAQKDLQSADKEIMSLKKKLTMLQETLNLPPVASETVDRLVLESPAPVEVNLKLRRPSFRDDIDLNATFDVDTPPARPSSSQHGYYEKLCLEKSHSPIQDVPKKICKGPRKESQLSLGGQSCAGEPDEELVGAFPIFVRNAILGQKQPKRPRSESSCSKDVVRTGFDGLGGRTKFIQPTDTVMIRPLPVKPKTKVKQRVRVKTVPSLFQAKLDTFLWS
Test: co-IP; 293T cells co-transfected with Myc-TRAIP and GFP-ZNF212 WT, deletion mutants or NLS-fragments; 24 h; lysates with benzonase; IP with anti-Myc bead, immunoblot

| binding | Substance |
| --- | --- |
| binds | GFP-ZNF212-ΔC (human) (domain or fragment) |
| binds | GFP-ZNF212-ΔM (human) (domain or fragment) |
| binds | GFP-ZNF212-ΔN (human) (domain or fragment) |

No constants are given. Whether binding was seen depends on the method and setting. Binding seen in cells or lysates may run through a third protein. Binding calls can cover weak binding; strength is not graded here. Where a sequence is shown, tags or fusion partners need not be part of it.
